Experimental data as given in patent US20200317755A1.
Read-outs that look alike come from different tables or passages of the source. No constants are given. Whether binding was seen depends on the method and setting.

B1: ZKA64 (antibody, V domains shown)
VH: QVQLVQSGAEVKKPGASVKVSCKASGYTFTGYHIDWVRQARGQGLEWMGRINPNSGGTNYAQKFQGRVTMTRDTSISTAYMQLSRLRSDDSAVYYCARMSSSIWGFDHWGQGTLVTVSS
VL: EIVMTQSPATLSVSPGERATLSCRASQSVLINLAWYQQKPGQAPRLLIYGASSRATGIPARFSGSGSGTEFTLTISSLQSEDFAVYYCQQYNDWPPITFGQGTRLEIK
B2: ZKA185 (antibody, V domains shown)
VH: EVQLVQSGAEVKKPGESLRISCKGSGYSFTSYWITWVRQMPGKGLEWMAKFDPSDSQTNYSPSFQGHVTISVDKSISTAYLQWSSLKASDTAMYYCARRYCSSSSCYVDNWGQGTLVTIFS
VL: SYELTQPPSVSVSPGQTARITCSGDALPNKFAYWYRQKSGQAPVLVIYEDNKRPSGIPERFSGSSSGTMATLTISGAQVEDEADYHCYSTDSSSNPLGVFGGGTKLTVL
B3: ZKA230 (antibody, V domains shown)
VH: QVQLQESGPGLVKPSETLSLTCAVSGGSISSDYWSWIRQPPGKGLEWIGYIYYSGSTNYNPSLKSRVTISVDTSKNHFSLKLNSVTAADTAVYYCARRRKYDSLWGSFAFDIWGQGTMVTVSS
VL: QSVLTQPPSASGTPGQRVTISCSGSSSNIGGNYVYWYQQLPGTAPKLLICINDHRPSGVPDRFSGSKSGTSASLAISGLQSEDEADYYCATWDDSLGGLVFGGGTKLTVL

What was measured:
[1] = target: DENV1 E protein (Dengue virus serotype 1); test: ELISA
[2] = target: DENV1 VLP (Dengue virus 1); test: ELISA
[3] = target: DENV2 VLP (Dengue virus 2); test: ELISA
[4] = target: DENV3 E protein (Dengue virus serotype 3); test: ELISA
[5] = target: DENV3 VLP (Dengue virus 3); test: ELISA
[6] = target: DENV4 E protein (Dengue virus serotype 4); test: ELISA
[7] = target: DENV4 VLP (Dengue virus 4); test: ELISA
[8] = target: DENV1 E protein (Dengue virus serotype 1); test: ELISA; remark: listed apart in the source
[9] = target: DENV1 VLP (Dengue virus 1); test: condition: dilution factor 1 (no concentration given); ELISA

Binder | binding [1] | binding [2] | binding [3] | binding [4] | binding [5] | binding [6] | binding [7] | binding [8] | binding [9]
B1 | no binding | no binding | no binding | no binding | no binding | no binding | no binding | no binding (tested: 10000 ng/ml) | 
B2 | no binding |  |  | no binding |  | no binding |  |  | no binding
B3 | no binding |  |  | no binding |  | no binding |  |  | no binding
